Assay results taken from PMC4227786.
These are yes or no findings as the source states them, for the method shown. In cells and extracts the contact can be indirect. Some entries that bind do so weakly or less than the wild type.

Amino acid sequences for entries named in this document (tags omitted).
UniProt Q9UBS0: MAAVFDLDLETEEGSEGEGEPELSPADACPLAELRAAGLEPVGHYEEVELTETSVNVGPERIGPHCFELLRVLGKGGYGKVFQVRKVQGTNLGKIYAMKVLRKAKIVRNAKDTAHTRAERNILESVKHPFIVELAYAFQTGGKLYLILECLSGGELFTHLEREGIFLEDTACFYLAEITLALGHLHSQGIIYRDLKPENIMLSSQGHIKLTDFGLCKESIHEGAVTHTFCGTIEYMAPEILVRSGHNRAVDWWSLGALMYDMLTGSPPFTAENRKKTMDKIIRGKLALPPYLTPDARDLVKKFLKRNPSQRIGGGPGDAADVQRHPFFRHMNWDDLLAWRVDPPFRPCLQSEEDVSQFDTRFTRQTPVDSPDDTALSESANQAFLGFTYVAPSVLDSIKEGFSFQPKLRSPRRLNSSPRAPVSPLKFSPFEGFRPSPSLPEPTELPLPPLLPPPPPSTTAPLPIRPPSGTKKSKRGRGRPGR

Target: T1, PDCD4 (endogenous) (human (endogenous in HEK293)) (UniProt Q53EL6)
T1 sequence: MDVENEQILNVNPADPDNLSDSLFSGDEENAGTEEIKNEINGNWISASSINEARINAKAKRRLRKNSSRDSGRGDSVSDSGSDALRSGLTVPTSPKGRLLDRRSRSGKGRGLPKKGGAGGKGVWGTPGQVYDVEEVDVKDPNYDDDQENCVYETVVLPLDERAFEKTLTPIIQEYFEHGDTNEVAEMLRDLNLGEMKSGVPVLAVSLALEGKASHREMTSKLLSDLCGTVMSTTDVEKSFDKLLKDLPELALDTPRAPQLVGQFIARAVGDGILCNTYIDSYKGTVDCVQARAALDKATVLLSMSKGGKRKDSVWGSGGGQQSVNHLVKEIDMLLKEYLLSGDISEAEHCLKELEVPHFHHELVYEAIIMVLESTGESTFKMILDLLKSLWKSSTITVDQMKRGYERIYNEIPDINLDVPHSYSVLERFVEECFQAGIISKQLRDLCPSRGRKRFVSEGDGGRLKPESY
Assay: co-IP; endogenous proteins immunoprecipitated from H510 or HEK293 cells treated ± FGF-2; antibodies on Protein A or G magnetic beads; western blot

“S6K2 (endogenous ribosomal S6 kinase 2) (from UniProt Q9UBS0 1-482) (enzyme)” was tested, and the binding was “binds”.
